{"sequences": {"note": "Chains of the proteins cited; added tags and fusions are not shown. Lines headed by an entry give the natural chain unless they say otherwise; changes in a name come on top. Residues count along the entry.", "UniProt Q5VZL5": "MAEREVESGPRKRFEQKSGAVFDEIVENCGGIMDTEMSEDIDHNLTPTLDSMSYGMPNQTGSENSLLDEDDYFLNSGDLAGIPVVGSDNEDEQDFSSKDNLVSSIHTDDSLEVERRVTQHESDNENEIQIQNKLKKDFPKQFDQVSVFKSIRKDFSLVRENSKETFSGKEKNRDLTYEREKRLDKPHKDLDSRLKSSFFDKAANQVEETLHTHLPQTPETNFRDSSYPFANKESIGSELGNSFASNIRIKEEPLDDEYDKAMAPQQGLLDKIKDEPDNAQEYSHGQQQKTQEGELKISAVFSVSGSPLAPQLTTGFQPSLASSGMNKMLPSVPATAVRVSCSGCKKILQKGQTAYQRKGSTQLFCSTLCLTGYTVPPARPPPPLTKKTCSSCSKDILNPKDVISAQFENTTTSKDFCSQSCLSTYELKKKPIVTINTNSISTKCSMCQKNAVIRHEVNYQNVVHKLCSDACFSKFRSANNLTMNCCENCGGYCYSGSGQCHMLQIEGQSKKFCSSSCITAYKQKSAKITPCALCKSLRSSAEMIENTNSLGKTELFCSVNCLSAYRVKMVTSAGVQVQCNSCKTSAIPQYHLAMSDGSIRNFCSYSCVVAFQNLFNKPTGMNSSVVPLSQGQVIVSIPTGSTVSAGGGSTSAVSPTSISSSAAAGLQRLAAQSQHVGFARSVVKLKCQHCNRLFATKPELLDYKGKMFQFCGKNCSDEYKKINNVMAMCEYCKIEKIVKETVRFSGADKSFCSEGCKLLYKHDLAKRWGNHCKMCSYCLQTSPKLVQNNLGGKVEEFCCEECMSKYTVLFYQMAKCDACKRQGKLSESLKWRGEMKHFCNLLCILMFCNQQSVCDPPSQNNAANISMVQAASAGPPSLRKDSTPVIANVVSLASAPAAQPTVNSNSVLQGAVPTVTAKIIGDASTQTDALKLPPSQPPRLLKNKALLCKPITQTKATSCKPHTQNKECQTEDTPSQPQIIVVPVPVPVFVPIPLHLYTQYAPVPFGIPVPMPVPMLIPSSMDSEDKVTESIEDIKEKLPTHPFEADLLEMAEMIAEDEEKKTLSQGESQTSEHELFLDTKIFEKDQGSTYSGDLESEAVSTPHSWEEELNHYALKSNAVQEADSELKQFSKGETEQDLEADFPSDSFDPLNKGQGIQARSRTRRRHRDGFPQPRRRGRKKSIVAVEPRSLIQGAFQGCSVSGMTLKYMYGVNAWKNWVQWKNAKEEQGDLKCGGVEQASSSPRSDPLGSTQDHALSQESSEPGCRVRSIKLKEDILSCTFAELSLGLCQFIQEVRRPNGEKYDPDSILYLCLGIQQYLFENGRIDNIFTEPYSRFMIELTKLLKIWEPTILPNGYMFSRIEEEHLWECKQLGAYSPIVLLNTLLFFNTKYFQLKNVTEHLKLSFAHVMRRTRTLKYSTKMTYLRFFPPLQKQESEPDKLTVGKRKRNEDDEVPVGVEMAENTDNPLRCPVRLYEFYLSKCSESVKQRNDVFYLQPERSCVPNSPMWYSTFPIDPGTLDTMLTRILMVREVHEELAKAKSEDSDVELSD", "UniProt Q6V9R5": "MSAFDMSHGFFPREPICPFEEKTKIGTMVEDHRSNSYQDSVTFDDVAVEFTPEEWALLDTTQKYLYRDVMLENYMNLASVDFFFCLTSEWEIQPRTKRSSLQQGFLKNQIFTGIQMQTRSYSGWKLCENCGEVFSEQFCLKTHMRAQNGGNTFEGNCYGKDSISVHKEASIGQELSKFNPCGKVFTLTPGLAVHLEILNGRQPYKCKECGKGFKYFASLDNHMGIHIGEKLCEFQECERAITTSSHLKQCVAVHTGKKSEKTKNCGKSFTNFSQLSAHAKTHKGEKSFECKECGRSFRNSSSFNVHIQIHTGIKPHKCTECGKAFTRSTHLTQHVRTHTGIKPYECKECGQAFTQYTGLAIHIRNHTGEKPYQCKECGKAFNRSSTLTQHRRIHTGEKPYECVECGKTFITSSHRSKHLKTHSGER", "UniProt Q9UBW7": "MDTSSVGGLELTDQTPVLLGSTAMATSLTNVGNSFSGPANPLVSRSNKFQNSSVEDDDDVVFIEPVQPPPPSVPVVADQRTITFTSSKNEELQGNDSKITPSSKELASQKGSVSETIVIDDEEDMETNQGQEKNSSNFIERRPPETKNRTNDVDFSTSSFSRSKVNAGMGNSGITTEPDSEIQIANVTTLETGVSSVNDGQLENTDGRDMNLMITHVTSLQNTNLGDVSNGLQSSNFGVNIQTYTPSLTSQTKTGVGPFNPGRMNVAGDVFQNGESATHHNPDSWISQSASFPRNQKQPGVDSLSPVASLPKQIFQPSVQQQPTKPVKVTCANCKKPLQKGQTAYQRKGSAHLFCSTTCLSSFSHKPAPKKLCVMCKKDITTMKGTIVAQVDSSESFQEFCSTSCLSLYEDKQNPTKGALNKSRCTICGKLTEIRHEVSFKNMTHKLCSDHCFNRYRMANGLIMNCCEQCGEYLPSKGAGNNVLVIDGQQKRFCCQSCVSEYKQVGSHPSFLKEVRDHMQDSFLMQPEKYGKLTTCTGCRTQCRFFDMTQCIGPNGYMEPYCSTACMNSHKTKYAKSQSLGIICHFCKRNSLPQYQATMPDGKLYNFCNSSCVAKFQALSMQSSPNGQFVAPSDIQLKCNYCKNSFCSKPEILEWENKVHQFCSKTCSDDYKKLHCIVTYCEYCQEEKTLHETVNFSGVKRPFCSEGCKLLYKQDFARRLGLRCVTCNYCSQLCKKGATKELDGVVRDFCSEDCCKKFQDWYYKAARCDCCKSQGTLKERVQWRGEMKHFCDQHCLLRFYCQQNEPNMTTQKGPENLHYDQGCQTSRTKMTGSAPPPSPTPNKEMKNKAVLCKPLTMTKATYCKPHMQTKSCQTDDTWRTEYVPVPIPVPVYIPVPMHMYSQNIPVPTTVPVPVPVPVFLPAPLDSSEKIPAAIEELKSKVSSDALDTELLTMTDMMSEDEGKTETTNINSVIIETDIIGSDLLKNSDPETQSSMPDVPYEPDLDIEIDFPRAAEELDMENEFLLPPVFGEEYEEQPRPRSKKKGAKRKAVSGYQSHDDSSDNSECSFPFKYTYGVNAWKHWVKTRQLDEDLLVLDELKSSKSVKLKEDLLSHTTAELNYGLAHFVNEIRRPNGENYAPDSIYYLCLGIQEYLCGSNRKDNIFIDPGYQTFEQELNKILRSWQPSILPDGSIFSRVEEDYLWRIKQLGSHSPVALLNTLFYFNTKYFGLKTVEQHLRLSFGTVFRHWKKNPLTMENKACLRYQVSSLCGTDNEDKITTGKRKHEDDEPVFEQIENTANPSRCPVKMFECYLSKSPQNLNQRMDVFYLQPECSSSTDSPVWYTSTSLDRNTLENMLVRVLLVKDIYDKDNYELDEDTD", "UniProt Q9H2Y7, 1201-1225": "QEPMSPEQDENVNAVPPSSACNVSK", "UniProt O15014": "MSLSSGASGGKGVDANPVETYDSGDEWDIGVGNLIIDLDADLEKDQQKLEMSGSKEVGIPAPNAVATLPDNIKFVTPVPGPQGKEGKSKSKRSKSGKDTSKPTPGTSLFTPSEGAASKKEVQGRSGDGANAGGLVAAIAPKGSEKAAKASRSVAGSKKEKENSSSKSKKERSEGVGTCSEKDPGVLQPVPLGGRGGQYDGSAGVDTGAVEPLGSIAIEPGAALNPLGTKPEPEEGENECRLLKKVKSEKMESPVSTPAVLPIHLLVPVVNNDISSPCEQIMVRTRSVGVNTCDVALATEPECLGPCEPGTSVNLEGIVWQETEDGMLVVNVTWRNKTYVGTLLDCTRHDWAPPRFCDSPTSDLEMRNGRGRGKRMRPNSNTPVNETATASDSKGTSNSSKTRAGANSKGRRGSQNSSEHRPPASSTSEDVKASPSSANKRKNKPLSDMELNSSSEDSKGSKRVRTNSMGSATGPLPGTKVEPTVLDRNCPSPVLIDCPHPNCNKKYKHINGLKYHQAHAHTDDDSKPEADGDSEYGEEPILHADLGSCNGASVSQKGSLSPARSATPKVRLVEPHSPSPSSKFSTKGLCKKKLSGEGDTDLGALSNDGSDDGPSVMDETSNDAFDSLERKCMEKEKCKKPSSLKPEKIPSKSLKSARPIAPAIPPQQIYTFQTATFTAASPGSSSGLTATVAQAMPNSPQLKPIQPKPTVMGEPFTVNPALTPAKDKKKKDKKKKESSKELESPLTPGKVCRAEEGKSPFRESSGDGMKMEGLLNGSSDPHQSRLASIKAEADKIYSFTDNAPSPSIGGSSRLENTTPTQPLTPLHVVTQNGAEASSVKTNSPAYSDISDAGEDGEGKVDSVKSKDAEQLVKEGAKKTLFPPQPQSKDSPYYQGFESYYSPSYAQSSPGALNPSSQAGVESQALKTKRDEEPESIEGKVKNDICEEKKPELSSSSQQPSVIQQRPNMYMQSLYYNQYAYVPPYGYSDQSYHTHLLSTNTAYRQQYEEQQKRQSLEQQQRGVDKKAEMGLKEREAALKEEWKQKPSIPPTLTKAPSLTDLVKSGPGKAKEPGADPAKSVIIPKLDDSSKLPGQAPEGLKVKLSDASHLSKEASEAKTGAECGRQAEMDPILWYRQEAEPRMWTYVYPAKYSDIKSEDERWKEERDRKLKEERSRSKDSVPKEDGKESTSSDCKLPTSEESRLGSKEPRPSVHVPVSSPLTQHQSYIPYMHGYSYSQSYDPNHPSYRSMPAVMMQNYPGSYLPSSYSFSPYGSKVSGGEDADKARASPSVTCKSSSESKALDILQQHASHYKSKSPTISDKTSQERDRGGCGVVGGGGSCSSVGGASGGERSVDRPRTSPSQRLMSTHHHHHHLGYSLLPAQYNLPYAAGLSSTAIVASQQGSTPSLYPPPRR", "UniProt O43264, 668-687": "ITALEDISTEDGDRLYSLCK", "UniProt Q9H8U3": "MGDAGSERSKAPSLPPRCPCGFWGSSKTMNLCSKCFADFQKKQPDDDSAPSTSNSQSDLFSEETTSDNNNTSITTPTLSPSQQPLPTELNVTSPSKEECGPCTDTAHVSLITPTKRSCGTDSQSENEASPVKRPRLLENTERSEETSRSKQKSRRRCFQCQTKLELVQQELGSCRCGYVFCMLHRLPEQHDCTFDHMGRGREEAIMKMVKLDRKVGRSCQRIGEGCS", "UniProt Q9UGR2": "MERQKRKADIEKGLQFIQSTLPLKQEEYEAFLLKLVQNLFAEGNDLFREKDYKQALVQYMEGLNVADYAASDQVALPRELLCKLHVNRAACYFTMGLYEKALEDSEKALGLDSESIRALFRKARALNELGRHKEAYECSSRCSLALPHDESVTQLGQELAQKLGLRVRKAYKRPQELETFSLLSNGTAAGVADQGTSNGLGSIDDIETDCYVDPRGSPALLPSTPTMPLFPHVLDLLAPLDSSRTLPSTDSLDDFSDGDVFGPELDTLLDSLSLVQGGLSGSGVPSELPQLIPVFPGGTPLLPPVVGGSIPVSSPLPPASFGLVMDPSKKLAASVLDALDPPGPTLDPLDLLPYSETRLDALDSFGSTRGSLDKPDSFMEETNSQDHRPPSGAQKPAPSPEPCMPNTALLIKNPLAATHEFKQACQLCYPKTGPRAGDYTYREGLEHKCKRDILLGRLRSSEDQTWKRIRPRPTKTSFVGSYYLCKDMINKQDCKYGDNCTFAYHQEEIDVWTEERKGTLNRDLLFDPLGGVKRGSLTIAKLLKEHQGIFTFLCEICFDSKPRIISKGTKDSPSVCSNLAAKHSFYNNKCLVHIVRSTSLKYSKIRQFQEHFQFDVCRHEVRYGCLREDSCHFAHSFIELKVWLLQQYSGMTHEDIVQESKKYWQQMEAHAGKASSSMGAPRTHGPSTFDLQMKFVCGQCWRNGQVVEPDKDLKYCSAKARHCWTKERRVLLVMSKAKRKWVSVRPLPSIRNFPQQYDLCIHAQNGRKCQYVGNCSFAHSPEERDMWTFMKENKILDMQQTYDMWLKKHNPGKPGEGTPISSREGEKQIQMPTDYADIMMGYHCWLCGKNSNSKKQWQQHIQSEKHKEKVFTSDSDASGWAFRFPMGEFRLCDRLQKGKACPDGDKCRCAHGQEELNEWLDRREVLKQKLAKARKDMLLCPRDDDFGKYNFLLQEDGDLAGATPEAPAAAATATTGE", "UniProt Q15942": "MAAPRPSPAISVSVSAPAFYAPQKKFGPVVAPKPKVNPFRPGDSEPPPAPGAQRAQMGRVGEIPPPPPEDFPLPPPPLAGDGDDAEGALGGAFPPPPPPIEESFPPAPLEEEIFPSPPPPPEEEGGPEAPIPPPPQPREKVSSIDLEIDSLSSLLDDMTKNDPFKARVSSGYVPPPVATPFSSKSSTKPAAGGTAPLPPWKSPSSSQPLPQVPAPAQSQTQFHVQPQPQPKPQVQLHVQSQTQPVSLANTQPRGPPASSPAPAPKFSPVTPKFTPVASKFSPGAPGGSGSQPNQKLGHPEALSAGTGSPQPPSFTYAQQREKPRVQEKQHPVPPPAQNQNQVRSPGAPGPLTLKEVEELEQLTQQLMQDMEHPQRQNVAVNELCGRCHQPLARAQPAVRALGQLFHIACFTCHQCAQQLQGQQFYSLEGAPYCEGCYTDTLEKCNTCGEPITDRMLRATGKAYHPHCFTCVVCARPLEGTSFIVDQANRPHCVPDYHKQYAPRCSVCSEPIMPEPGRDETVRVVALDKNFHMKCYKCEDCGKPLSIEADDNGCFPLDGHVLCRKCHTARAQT"}, "source": "the supplement of paper PMC11732987", "about": "“Enantioselective OTUD7B fragment discovery through chemoproteomics screening and high-throughput optimisation” (Communications Chemistry, 2025)", "note": "Some of the results follow. The data scatter; read single values as rough."}
{"compound": "ClCC(=O)N[C@H]1CCCc2ccccc12", "assay": "log2 mean competition ratio of IA-DTB cysteine labelling (DMSO/compound) (log2 ratio); higher = stronger cysteine engagement by compound", "conditions": "200 µM; treatment time: 4 h; cell line lysate: HEK293T", "procedure": "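IA-DTB competitive cysteine chemoproteomics in HEK293T RIPA lysate. Lysates were treated with compound 29 or 30 at 50 or 200 µM for 4 h, then IA-DTB (500 µM, 1 h), trypsin-digested, NeutrAvidin-enriched and analysed by diaPASEF. Competition ratio = intensity DMSO / intensity compound (n=4 treated, n=64 DMSO); binding: mean log2 CR ≥ 1 and p ≤ 0.05 plus QC filters. Target is the cysteine site.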"}
{"target": "ZNHIT2 C41 (UniProt Q9UHR6)", "log2 mean competition ratio": 0.0351}
{"target": "ZMYM4 C1368 (UniProt Q5VZL5)", "log2 mean competition ratio": 0.181}
{"target": "ZFC3H1 C241 (UniProt O60293)", "log2 mean competition ratio": 0.0715}
{"target": "ZFC3H1 C1068 (UniProt O60293)", "log2 mean competition ratio": 0.112}
{"target": "ZNF562 C17 (UniProt Q6V9R5)", "log2 mean competition ratio": -0.0841}
{"target": "ZNF302 C274", "log2 mean competition ratio": 0.181}
{"target": "ZNF280B C5 (UniProt Q86YH2)", "log2 mean competition ratio": -0.175}
{"target": "ZNF747 C108", "log2 mean competition ratio": 0.205}
{"target": "ZNF516 C165 (UniProt Q92618)", "log2 mean competition ratio": 0.202}
{"target": "ZMYM2 C823 (UniProt Q9UBW7)", "log2 mean competition ratio": -0.0314}
{"target": "ZNF106 C544 (UniProt Q9H2Y7)", "log2 mean competition ratio": -0.215}
{"target": "ZC3HAV1 C272 (UniProt Q7Z2W4)", "log2 mean competition ratio": -0.17}
{"target": "ZMYM6 C454", "log2 mean competition ratio": 0.145}
{"target": "ZNF609 C1120 (UniProt O15014)", "log2 mean competition ratio": 0.0468}
{"target": "ZNF704 C55", "log2 mean competition ratio": -0.0572}
{"target": "ZW10 C686 (UniProt O43264)", "log2 mean competition ratio": -0.0956}
{"target": "ZNF195 C207", "log2 mean competition ratio": 0.00903}
{"target": "ZNF654 C732, A0A1B0GWA0", "log2 mean competition ratio": 0.0506}
{"target": "ZNF518A C813", "log2 mean competition ratio": 0.0845}
{"target": "ZSWIM8 C1441 (UniProt A7E2V4)", "log2 mean competition ratio": 0.0208}
{"target": "ZMYM4 C715 (UniProt Q5VZL5)", "log2 mean competition ratio": -0.13}
{"target": "ZNF616 C174", "log2 mean competition ratio": -0.135}
{"target": "ZNF507 C86 (UniProt Q8TCN5)", "log2 mean competition ratio": -0.208}
{"target": "ZCCHC3 C348 (UniProt Q9NUD5)", "log2 mean competition ratio": 0.158}
{"target": "ZFAND3 C35 (UniProt Q9H8U3)", "log2 mean competition ratio": 0.0777}
{"target": "ZNF592 C1221 (UniProt Q92610)", "log2 mean competition ratio": 0.237}
{"target": "ZZEF1 C2553 (UniProt O43149)", "log2 mean competition ratio": 0.0453}
{"target": "ZC3H7A C894 (UniProt Q8IWR0)", "log2 mean competition ratio": -0.0897}
{"target": "ZNF318 C242 (UniProt Q5VUA4)", "log2 mean competition ratio": 0.124}
{"target": "ZC3HAV1 C645 (UniProt Q7Z2W4)", "log2 mean competition ratio": 0.118}
{"target": "ZNF106 C1221 (UniProt Q9H2Y7)", "log2 mean competition ratio": -0.137}
{"target": "ZDBF2 C1996", "log2 mean competition ratio": 0.0195}
{"target": "ZC3H7B C576 (UniProt Q9UGR2)", "log2 mean competition ratio": -0.0061}
{"target": "ZYX C384 (UniProt Q15942)", "log2 mean competition ratio": 0.452}
{"target": "ZNF398 C275", "log2 mean competition ratio": -0.167}
{"target": "ZFYVE21 C88 (UniProt Q9BQ24)", "log2 mean competition ratio": 0.219}
{"target": "ZNF217 C341 (UniProt O75362)", "log2 mean competition ratio": 0.326}
